Source: PubChem BioAssay AID2685 (National Center for Advancing Translational Sciences (NCATS), 2010)
Some of the results follow. Further columns of the screen follow, without active or inactive calls. The list favours compounds with an active or inconclusive main result. Words in brackets tell the shape of the fitted curve; partial curves, single points and poor fits give uncertain potencies.

Assay: qHTS Assay for Lipid Storage Modulators in Drosophila S3 Cells;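 as to cell number change: cells counted by Cell Tracker Red CMTPX staining in the red channel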
Conditions: BODIPY lipid droplet fluorescence, 18-24 h; for cell number change: measured here: cell count max response, cells fed with added oleic acid
Outline: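 Drosophila S3 cells got compounds at several concentrations plus oleic acid (400 uM solution). Laser-scanning cytometry with 488 nm excitation read lipid droplets at 500-530 nm and cells at 575-640 nm. Percent activity was relative to 20 uM Triacsin C.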

[1] = measured here: cell number channel AC50, cells fed with added oleic acid
[2] = measured here: lipid fluorescence (Fed channel) AC50, cells fed with added oleic acid

Structure (SMILES)	cell number change [%]	AC50 [1]	AC50 [2]
Cc1[nH]c2ccccc2c1CCNC(=O)c1ccc2c(c1[N+](=O)[O-])C(=O)c1ccccc1C2=O	-37.2	29.1 µM [falling, single point]	29.1 µM [falling, single point]
CCOc1c(N2CCOCC2)c(=O)c1=O	–	2.31 µM [falling, single point]	4.11 µM [falling, single point]
Cc1cc(N(CC(=O)O)S(C)(=O)=O)ccc1Br	-22.2	–	1.84 µM [falling, full curve, poor fit]
COc1ccc(-c2nc3cnccn3c2Nc2ccc3c(c2)OCO3)cc1	4.15	–	8.2 µM [rising, partial curve, poor fit]
CC(=O)OCC(=O)N1N=C(c2ccc3ccccc3c2)CC1c1ccccc1 (stereo not given)	45.6	–	–
Cc1ccc2c(c1)C(c1ccc(F)cc1)N(C(=O)C1CC1)CC(=O)N2 (stereo not given)	-66	3.26 µM [falling, partial curve]	0.184 µM [rising, full curve]
CCOc1cc(C(=O)OCC(=O)Nc2cccc(C)c2)ccc1OCC(=O)N1CCOCC1	31.1	29.1 µM [rising, partial curve]	25.9 µM [rising, partial curve]
Cc1cc(C)cc(NC(=O)C2(c3cccs3)CCOCC2)c1	16.2	–	1.46 µM [rising, partial curve]
CC(=O)Nc1ccc(S(=O)(=O)N2CCN(C(=O)c3ncoc3-c3ccccc3C)CC2)cc1	-9.21	–	5.62 µM [falling, single point]
CCOC(=O)C(C(=O)Nc1ccc(C)cc1)C1CCCCC1 (stereo not given)	43.8	18.4 µM [rising, single point]	1.03 µM [rising, full curve, poor fit]
CS(=O)(=O)Nc1ccc(C2=NN(C(=O)c3ccco3)C(c3ccco3)C2)cc1 (stereo not given)	-3.18	–	6.51 µM [rising, partial curve, poor fit]
Cn1c(NC(=O)c2ccco2)cc(=O)n(C)c1=O	-0.404	–	–
CNC(=O)c1nnn(Cc2ccccc2)c1NC(C)=O	-18.8	–	0.146 µM [falling, single point]
C/C(Cl)=C/CSc1nc2c(c(=O)[nH]c(=O)n2C)n1C(C)C	22.4	–	23.1 µM [rising, single point]
COc1cccc(-c2nnc(NC(=O)c3cccc(F)c3)o2)c1	-30.3	23.1 µM [falling, single point]	29.1 µM [falling, single point]
CC(=O)Nc1ccc(N(C(=O)c2ccco2)C(C(=O)NC2CCCC2)c2ccc(N(C)C)cc2)cc1 (stereo not given)	-3.85	–	29.1 µM [falling, single point]
COc1ccc(C(=O)COC(=O)c2ccc3c(c2)OCCO3)c(OC)c1	-0.792	–	32.6 µM [falling, single point]
CCc1ccc(/C=N/NC(=O)c2nnn(-c3nonc3N)c2CN2CCc3ccccc32)cc1	-17.1	–	–
CCOC(=O)c1cnc(SCC(=O)Nc2nnc(CC)s2)nc1N	11.7	–	0.00461 µM [falling, full curve, poor fit]
CC1CN(C(=O)CSc2nnc(-c3cccs3)n2N)CC(C)O1 (stereo not given)	-20.3	–	–

A second format for part of the listing above.
Structure (SMILES),cell number change [%],AC50 [1],AC50 [2]
Cc1cc(N(CC(=O)O)S(C)(=O)=O)ccc1Br,-22.2,–,"1.84 µM [falling, full curve, poor fit]"
COc1ccc(-c2nc3cnccn3c2Nc2ccc3c(c2)OCO3)cc1,4.15,–,"8.2 µM [rising, partial curve, poor fit]"
CC(=O)OCC(=O)N1N=C(c2ccc3ccccc3c2)CC1c1ccccc1 (stereo not given),45.6,–,–

Additional compounds

Structure (SMILES)	cell number change [%]	AC50 [1]	AC50 [2]
O=S(=O)(c1ccc2ccccc2c1)N1CCN(C(=S)Nc2ccc(F)c(Cl)c2)CC1	3.14	–	0.651 µM [rising, full curve, poor fit]
COc1ccc(NC(=O)c2cc(S(=O)(=O)N3CCOCC3)ccc2N2CCOCC2)cc1	–	–	29.1 µM [rising, partial curve, poor fit]
CCCCn1c(SCc2cc(=O)[nH]c3ccccc23)nc2c1c(=O)n(C)c(=O)n2C	27.4	–	0.651 µM [rising, full curve]
CC1=C(C(=O)OC2CCCC2)C(c2coc3ccc(C)cc3c2=O)C2=C(CCCC2=O)N1 (stereo not given)	-9.02	6.51 µM [falling, single point]	4.11 µM [falling, single point]
CCOC(=O)c1nn(-c2cccc(Cl)c2)c(C)c1C(C)=O	46.9	–	–
C=CCOc1cccc(C2C(C(=O)c3ccc(C)o3)=C(O)C(=O)N2CCN(C)C)c1 (stereo not given)	-1.89	–	–
O=C(COC(=O)c1c2c(nc3ccccc13)/C(=C\c1cccs1)CCC2)Nc1ccccc1Cl	–	–	1.03 µM [falling, full curve]
CCN(CC)S(=O)(=O)c1ccc(N2CCOCC2)c(NC(=O)C23CC4CC(CC(Cl)(C4)C2)C3)c1	-4.55	–	–
Cc1ccc(-n2c(-c3ccco3)nc3nc4ccccc4nc32)cc1	1.97	–	0.731 µM [rising, full curve, poor fit]
Cc1oc(S(=O)(=O)N2CCCCC2)cc1NC(=O)Nc1ccc(Cl)cc1	16.6	1.16 µM [rising, full curve, poor fit]	0.326 µM [rising, partial curve, poor fit]
COc1cccc(CNC(=O)Cn2ccc3cc(S(=O)(=O)N4CCC(C)CC4)ccc32)c1	65.7	20.6 µM [rising, partial curve, poor fit]	–
COc1ccc(C(=O)O)cc1S(=O)(=O)N(CCc1ccccc1)Cc1ccccc1	-20.5	7.31 µM [falling, partial curve, poor fit]	6.51 µM [falling, single point]
Cc1ccc(S(=O)(=O)N2CCN(C(=O)[C@H](Cc3ccccc3)NC(=O)c3ccco3)CC2)cc1C	-6.77	–	0.103 µM [falling, full curve, poor fit]
O=c1[nH]c(CSc2nnc(COc3ccccc3)n2-c2ccccc2)nc2ccccc12	-12.6	–	–
Cc1cccc(NC(=S)NNC(=O)CC(C)O)c1C (stereo not given)	-10.3	–	–
CCc1ccc(N(CC(=O)NC(C)(C)C)C(=O)CNC(=O)c2cccs2)cc1	-34.3	9.2 µM [falling, partial curve, poor fit]	6.51 µM [rising, partial curve]
COc1cc(C(=O)OCC(=O)c2cc(C)n(CC3CCCO3)c2C)cc(OC)c1C (stereo not given)	22.7	–	–
Cc1noc(C)c1COC(=O)C1(c2cccc(F)c2)CCCC1	-13.7	–	1.84 µM [rising, single point]
COc1ccc(CC(=O)Nc2sc(Cc3ccccc3)c(C)c2C(N)=O)cc1	-23.9	–	29.1 µM [falling, single point]
COCCNc1ncnc2c1cnn2Cc1ccccc1Cl	62	16.4 µM [rising, partial curve]	6.51 µM [rising, single point]

Structure (SMILES)	cell number change [%]	AC50 [1]	AC50 [2]
CCN1C(=O)c2cccc3c(S(=O)(=O)N(C(=O)c4cccnc4)c4ccc(OC)cc4)ccc1c23	6.6	–	1.64 µM [rising, partial curve, poor fit]
CS(=O)(=O)N(CC(=O)N1CCN(c2ccc(F)cc2)CC1)c1ccc(F)c(Cl)c1	26.1	–	–
Cc1ccccc1OCC(=O)N(Cc1cccs1)C1CCS(=O)(=O)C1 (stereo not given)	1.99	–	3.26 µM [rising, single point]
CCOc1ccc(-c2nn3c(-c4ccccc4)nnc3s2)cc1	101	13 µM [rising, partial curve]	0.92 µM [rising, partial curve]
COc1cc(/C=C/c2ccc3cccc(O)c3n2)ccc1O	-28	–	16.4 µM [falling, partial curve]
CN(C)C(=O)CC12CC3CC(C1)CC(CC(=O)N(C)C)(C3)C2	-11	–	–
O=C(Nc1ccc(F)c(Cl)c1)C1CCN(c2ncnc3c2nc2n3CCCCC2)CC1	27.2	0.0411 µM [rising, full curve, poor fit]	0.731 µM [rising, full curve]
Clc1ccc(C(c2ccccc2Cl)C(Cl)Cl)cc1 (stereo not given)	-37.6	32.6 µM [falling, single point]	29.1 µM [falling, single point]
O=c1cc(-c2ccc([N+](=O)[O-])cc2)c2cc3c(cc2[nH]1)OCCO3	19.6	–	2.91 µM [rising, single point]
CCc1c(C)[nH]n(CCC#N)c1=O	5.05	0.82 µM [rising, single point]	0.731 µM [rising, single point]
N#Cc1c(SC(C(=O)O)c2ccccc2)nc2c(c1-c1cccs1)CCCC2 (stereo not given)	4.06	–	–
Cn1nnnc1SCC(=O)NNC(=O)c1ccc(F)cc1	-36.2	4.11 µM [falling, full curve]	2.91 µM [falling, full curve]
CCN(CC)S(=O)(=O)c1cccc(NC(=O)CCSc2ccc(Cl)cc2)c1	-33.3	14.6 µM [falling, single point]	25.9 µM [falling, single point]
O=C(COC(=O)C1CCN(c2ccc(C(F)(F)F)cn2)CC1)c1ccccc1	-9	–	–
O=C(c1ccccc1)N1CCCN(c2nccc(C(F)(F)F)n2)CC1	12.2	0.00461 µM [rising, full curve, poor fit]	–
COc1ccc(C(NC(C)=O)c2nccc3cc(OC)c(OC)cc23)cc1OC (stereo not given)	19	–	29.1 µM [rising, single point]
CC1CCN(c2ccc3nnc(CCC(=O)Nc4ccc(F)cc4)n3n2)CC1	4.2	–	6.51 µM [falling, single point]
CCNc1nc(C#N)nc2c1ncn2-c1cc(F)cc(F)c1	-8.47	–	–
